Assay results published in PMC8600398.

Sequences of proteins named here, by UniProt entry; tags and fusion partners are left off. A change or cut given only in a name is not applied to a line headed by its entry.
UniProt P0ACJ8: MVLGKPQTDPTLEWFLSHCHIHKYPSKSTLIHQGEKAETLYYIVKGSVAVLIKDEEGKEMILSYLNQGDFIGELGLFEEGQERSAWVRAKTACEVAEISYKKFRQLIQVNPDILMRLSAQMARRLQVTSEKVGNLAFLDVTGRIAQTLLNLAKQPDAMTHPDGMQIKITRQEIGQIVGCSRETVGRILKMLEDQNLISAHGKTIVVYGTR

Biological target: 6His-CRP (cAMP receptor protein) (UniProt P0ACJ8)
Test: EMSA
Details: 200 uM cAMP, 10 mM Tris-HCl pH 7.5, 50 mM NaCl, 5 mM MgSO4, 1 mM DTT, 1 mg/ml BSA, 10% glycerol, 12 ug/ml poly(dI-dC), 5 nM DNA, 37 C 15 min, recombinant protein, protein details: N-terminal 6His, label: Cy5 (5' or 3'), probe letters rebuilt from the primers and the genome

Row | Sequence | binding result | Kd
1 | AGTACTCGCACTTTTCCCACTAACTGCGCGCTGTTCCAGGTTTTGTAGCTAAACTGATCTTTATCAAGCACCAACTCGCCCCGATCGGTAATGCCAATCGGCGGCACTCGCTGACCGGTTTCGAACTGATGTGCGGAAGCCATCATCGGCAACAGCAGGCAGGTGAGTGCCAGAATCTTGCGTAGGGTCATGGTGTTTCCTTCTTATGATATGCAGGTGATCCGACCACTTGGGTCTGAGTTTTAATCATATGTGCTATTTATCGAATTTCCCGCAAGTGTGATGCCAGTTTGCGGTCAAGCGCACAAATCATATGAAAAATGAATGCTTATACTGAAGACCGCGCTTCGGTAAAAAGATAATTCTGAATAATTGTAACCTTTAGGTAAAAAAAGTTATACGCGGGATCCGGGG (double strand) [ytfK P2 promoter region (to -132)] | binds | –
2 | AGTACTCGCACTTTTCCCACTAACTGCGCGCTGTTCCAGGTTTTGTAGCTAAACTGATCTTTATCAAGCACCAACTCGCCCCGATCGGTAATGCCAATCGGCGGCACTCGCTGACCGGTTTCGAACTGATGTGCGGAAGCCATCATCGGCAACAGCAGGCAGGTGAGTGCCAGAATCTTGCGTAGGGTCATGGTGTTTCCTTCTTATGATATGCAGGTGATCCGACCACTTGGGTCTGAGTTTTAATCATATGTGCTATTTATCGAATTTCCCGCAAGTGTGATGCCAGTTTGCGGTCAAGCGCACAAATCATATGAAAAATGAATGCTTATACTGAAGACCGCGCTTCGGTAAAAAGATAATTCTGAATAATTGTAACCTTTAGGTAAAAAAAGTTATACGCGGTGGAAACATTGCCCGGATAGTCTATAGTCACTAAGCATTAAAATTTGCGCCTCATAATAGTTGGGCCGATTGTGGCACCGCACAGGCGTAATACTCAGCAGGAGATAACAATG (double strand) [ytfK promoter region -515/+3] | – | 25 nM
3 | CATTGTTATCTCCTGCTGAGTATTACGCCTGTGCGGTGCCACAATCGGCCCAACTATTATGAGGCGCAAATTTTAATGCTTAGTGACTATAGACTATCCGGGCAATGTTTCCACCGCGTATAACTTTTTTTACCTAAAGGTTACAATTATTCAGAATTATCTTTTTACCGAAGCGCGGTCTTCAGTATAAGCATTCATTTTTCATATGATTTGTGCGCTTGACCCTTGCGGGAAATTCGATAAATAGCACATATGATTAAAACTCAGACCCAAGTGGTCGGATCACCTGCATATCATAAGAAGGAAACACCATGACCCTACGCAAGATTCTGGCACTCACCTGCCTGCTGTTGCCGATGATGGCTTCCGCACATCAGTTCGAAACCGGTCAGCGAGTGCCGCCGATTGGCATTACCGATCGGGGCGAGTTGGTGCTTGATAAAGATCAGTTTAGCTACAAAACCTGGAACAGCGCGCAGTTAGTGGGAAAAGTGCGAGTACT (double strand) [ytfK promoter region with CRP site deleted] | no binding | –

The exact form of at least one protein or probe is not confirmed. A negative result means that nothing was seen under these conditions.
